From patent US20180086804A1 (COMMISSARIAT A L ENERGIE ATOMIQUE ET AUX ENERGIES …, published 2018) come the findings set out here.

What all share (assay): competition ELISA
One experiment has as its target T1, HLA-DR1 (HLA-DRB1*01:01) (human).
T1 construct: mature; class II HLA molecule purified from homozygous EBV-transformed lymphoblastoid cells with antibody L243

The target of experiment [1] is T2, HLA-DRB5 (HLA-DRB5*01:01) (human).
T2 construct: mature; purified from homozygous EBV-transformed lymphoblastoid cells with antibody L243

A further experiment has as its target T3, HLA-DR3 (HLA-DRB1*03:01) (human).
T3 construct: mature; purified from homozygous EBV-transformed lymphoblastoid cells with antibody L243

For the next experiment, the target named is T4, HLA-DR4 (HLA-DRB1*04:01) (human).
T4 construct: mature; purified from homozygous EBV-transformed lymphoblastoid cells with antibody L243

Another experiment deals with T5, HLA-DR7 (HLA-DRB1*07:01) (human).
T5 construct: mature; purified from homozygous EBV-transformed lymphoblastoid cells with antibody L243

For experiment [2], the target named is T6, HLA-DR11 (HLA-DRB1*11:01) (human).
T6 construct: mature; purified from homozygous EBV-transformed lymphoblastoid cells with antibody L243

In experiment [3] the target is T7, HLA-DR13 (HLA-DRB1*13:01) (human).
T7 construct: mature; purified from homozygous EBV-transformed lymphoblastoid cells with antibody L243

The target in experiment [4] is T8, HLA-DR15 (HLA-DRB1*15:01) (human).
T8 construct: mature; purified from homozygous EBV-transformed lymphoblastoid cells with antibody L243

Experiment [5] addresses T9, HLA-DRB3 (HLA-DRB3*01:01) (human).
T9 construct: mature; purified from homozygous EBV-transformed lymphoblastoid cells with antibody L243

Experiment [6] addresses T10, HLA-DRB4 (HLA-DRB4*01:01) (human).
T10 construct: mature; purified from homozygous EBV-transformed lymphoblastoid cells with antibody L243

Results are given in words; binding and its absence hold for the method and conditions named.

Consider EPVPEPEPEPEPEPV (C-terminal amide) [CCNB1 96-110], for which the binding entry with HLA-DR1 (HLA-DRB1*01:01) was “no binding (tested: rel. affinity >11262)”; in experiment [1], “no binding (tested: rel. affinity >3467)”; with HLA-DR3 (HLA-DRB1*03:01) it was “no binding (tested: rel. affinity >825)”; in the experiment with HLA-DR4 (HLA-DRB1*04:01), “no binding (tested: rel. affinity >1771)”; with HLA-DR7 (HLA-DRB1*07:01), “no binding (tested: rel. affinity >1036)”; in experiment [2] it was “no binding (tested: rel. affinity >1949)”. The binding entry in [3] is on record as “no binding (tested: rel. affinity >1949)”; in [4], “no binding (tested: rel. affinity >329)”; in experiment [5], “no binding (tested: rel. affinity >362)”; in [6], “no binding (tested: rel. affinity >961)”.
Regarding KRVPTAPAATSKPGL (C-terminal amide) [CCNB1 25-39], the binding entry in the experiment with HLA-DR1 (HLA-DRB1*01:01) was “no binding (tested: rel. affinity >11262)”; in experiment [1] it was “no binding (tested: rel. affinity >3467)”; with HLA-DR3 (HLA-DRB1*03:01), “no binding (tested: rel. affinity >825)”; in the experiment with HLA-DR4 (HLA-DRB1*04:01) it was “no binding (tested: rel. affinity >1771)”; with HLA-DR7 (HLA-DRB1*07:01), “no binding (tested: rel. affinity >1036)”; in experiment [2], “no binding (tested: rel. affinity >1949)”. In addition, the binding entry in [3] is “no binding (tested: rel. affinity >1949)”; in [4], “no binding (tested: rel. affinity >329)”; in experiment [5] it was “no binding (tested: rel. affinity >362)”; in experiment [6] it was “no binding (tested: rel. affinity >961)”.
PGLRPRTALGDIGNK (C-terminal amide) [CCNB1 37-51]: the binding entry with HLA-DR1 (HLA-DRB1*01:01) is listed as “no binding (tested: rel. affinity >11262)”; in experiment [1], “no binding (tested: rel. affinity >3467)”; with HLA-DR3 (HLA-DRB1*03:01) it was “no binding (tested: rel. affinity >825)”; with HLA-DR4 (HLA-DRB1*04:01) it was “no binding (tested: rel. affinity >1771)”; in the experiment with HLA-DR7 (HLA-DRB1*07:01) it was “no binding (tested: rel. affinity >1036)”; in experiment [2] it was “no binding (tested: rel. affinity >1949)”. Also, the binding result in experiment [4] is given as “no binding (tested: rel. affinity >329)”; in [5] it was “no binding (tested: rel. affinity >362)”; in experiment [6], “no binding (tested: rel. affinity >961)”.
On to LAVNDVDAEDGADPN (C-terminal amide) [CCNB1 151-165], for which the binding result with HLA-DR1 (HLA-DRB1*01:01) is on record as “no binding (tested: rel. affinity >11262)”; in [1], “no binding (tested: rel. affinity >3467)”; with HLA-DR3 (HLA-DRB1*03:01), “no binding (tested: rel. affinity >825)”; with HLA-DR7 (HLA-DRB1*07:01) it was “no binding (tested: rel. affinity >1036)”; in [2] it was “no binding (tested: rel. affinity >1949)”; in experiment [3] it was “no binding (tested: rel. affinity >1949)”. Further, the binding result in experiment [4] is reported as “no binding (tested: rel. affinity >329)”; in [5] it was “no binding (tested: rel. affinity >362)”; in [6] it was “no binding (tested: rel. affinity >961)”.
